Results are given in words; binding and its absence hold for the method and conditions named. In cells and extracts the contact can be indirect. Some entries that bind do so weakly or less than the wild type.
Columns and labels:
[1] = target: Y14-Mago heterodimer, endogenous in ovaries (Drosophila (endogenous in fly ovaries)) (UniProt Q9V535+P49028); assay: co-IP; anti-eIF4AIII antibody (rabbit IgG as control) on cytoplasmic ovarian extracts of wild-type, osk^A87/+, and osk^A87/+ flies over-expressing FLAG- or GFP-tagged FL-PYM; western blot
[2] = target: FL-PYM-GFP (S2 cells) (Drosophila) (UniProt P82804); assay: co-IP; GFP-Trap beads on cytoplasmic extracts of S2 cells expressing GFP or GFP-tagged FL-, ΔC- or N-PYM, native conditions; blots of Mago and Y14 quantified by densitometry, coIP efficiency as percent of the GFP enrichment
[3] = target: FL-PYM-GFP (S2 cells) (Drosophila) (UniProt P82804); assay: co-IP; GFP-Trap beads on extracts of S2 cells co-expressing HA-eIF4AIII and GFP or GFP-tagged PYM proteins; bound fractions probed with anti-Mago
[4] = target: HA-eIF4AIII (S2 cells) (Drosophila) (UniProt Q9VHS8); assay: co-IP; anti-HA beads on extracts of S2 cells co-expressing HA-eIF4AIII and GFP or GFP-tagged PYM proteins; bound fractions probed with anti-Mago
[5] = target: Drosophila PYM (DmPYM), endogenous (Drosophila (endogenous in fly ovaries)) (UniProt P82804); assay: co-IP; anti-PYM antibody (anti-HA as unrelated antibody) on cytoplasmic extract of wild-type ovaries, 4°C, with or without RNase; washes with 300 mM KCl, 0.2% NP-40; western blot
[6] = target: eIF4AIII, endogenous in ovaries (Drosophila (endogenous in fly ovaries)) (UniProt Q9VHS8); assay: co-IP; anti-eIF4AIII antibody (rabbit IgG as control) on cytoplasmic ovarian extracts of wild-type, osk^A87/+, and osk^A87/+ flies over-expressing FLAG- or GFP-tagged FL-PYM; western blot
[7] = target: FLAG-FL-PYM (transgene, ovaries) (Drosophila) (UniProt P82804); assay: co-IP; mouse anti-FLAG antibody on cytoplasmic extracts of osk^A87/+ ovaries expressing FLAG-tagged PYM proteins, 4°C; western blot

Chains of the proteins cited; added tags and fusions are not shown. Lines headed by an entry give the natural chain unless they say otherwise; changes in a name come on top.
UniProt Q9V535: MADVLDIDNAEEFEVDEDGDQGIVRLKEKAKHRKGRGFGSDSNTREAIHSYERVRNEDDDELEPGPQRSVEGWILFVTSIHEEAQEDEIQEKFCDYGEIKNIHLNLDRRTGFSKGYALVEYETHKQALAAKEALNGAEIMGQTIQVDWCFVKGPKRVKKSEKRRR
UniProt P49028: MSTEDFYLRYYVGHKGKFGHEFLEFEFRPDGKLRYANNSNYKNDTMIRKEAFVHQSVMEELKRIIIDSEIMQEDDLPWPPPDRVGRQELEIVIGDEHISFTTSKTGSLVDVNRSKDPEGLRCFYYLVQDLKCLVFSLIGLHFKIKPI
UniProt P82804: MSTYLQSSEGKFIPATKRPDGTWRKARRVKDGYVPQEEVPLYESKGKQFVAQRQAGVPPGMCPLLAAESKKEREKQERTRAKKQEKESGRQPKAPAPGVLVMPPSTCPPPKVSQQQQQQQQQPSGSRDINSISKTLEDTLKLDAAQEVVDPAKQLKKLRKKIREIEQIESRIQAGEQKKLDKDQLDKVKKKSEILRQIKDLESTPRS
UniProt Q9VHS8: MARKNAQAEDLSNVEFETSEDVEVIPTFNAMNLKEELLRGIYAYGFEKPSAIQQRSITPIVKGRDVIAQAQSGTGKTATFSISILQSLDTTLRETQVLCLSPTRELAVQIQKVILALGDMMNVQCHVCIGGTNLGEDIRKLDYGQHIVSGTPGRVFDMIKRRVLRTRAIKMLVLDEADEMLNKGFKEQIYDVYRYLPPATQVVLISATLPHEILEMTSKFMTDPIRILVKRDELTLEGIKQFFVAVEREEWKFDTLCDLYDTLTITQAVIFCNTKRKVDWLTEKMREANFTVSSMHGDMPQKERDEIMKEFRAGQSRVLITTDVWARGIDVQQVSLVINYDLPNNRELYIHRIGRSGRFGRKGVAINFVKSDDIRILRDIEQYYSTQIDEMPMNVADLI

Q: How did the binding [1] turn out when “FL-PYM-GFP (transgene, ovaries) (from UniProt P82804 1-207)” was run?
A: binds

Q: How did the binding [2] turn out when “Y14-Mago heterodimer, endogenous in S2 cells (from UniProt Q9V535 1-165; P49028 1-147) (complex)” was run?
A: binds

Q: And the binding [3]?
A: binds

Q: And the binding [4]?
A: binds

Q: What does the source list for “Y14-Mago heterodimer, endogenous in ovaries (from UniProt Q9V535 1-165; P49028 1-147) (complex)”?
A: binding [5]: binds; binding [6]: binds; binding [7]: binds

Q: Which results are given for “eIF4AIII, endogenous in ovaries (from UniProt Q9VHS8 1-399)”?
A: binding [5]: no binding; binding [7]: no binding

Reference: article PMC4072592
